{
  "sequences": {"note": "Chains of the proteins cited; added tags and fusions are not shown. Chains listed by the source or under a name are the forms on record and can include a tag or linker.", "SpPot1p N-terminal 22 kDa fragment (truncated Pot1p) (Schizosaccharomyces pombe), one chain, as listed by the source": "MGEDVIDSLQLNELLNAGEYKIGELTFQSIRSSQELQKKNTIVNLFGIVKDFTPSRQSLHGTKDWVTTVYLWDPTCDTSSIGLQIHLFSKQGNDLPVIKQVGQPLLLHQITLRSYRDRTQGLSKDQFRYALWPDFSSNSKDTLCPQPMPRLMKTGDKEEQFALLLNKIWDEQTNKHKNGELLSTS"},
  "source": "patent US20040191820",
  "about": "“Protection-of telomere-1 (POT-1) protein and encoding polynucleotides” (The Regents of the University of Colorado, published 2004)",
  "tested_on": "SpPot1p N-terminal 22 kDa fragment (truncated Pot1p) (Schizosaccharomyces pombe)",
  "experiment": "EMSA",
  "conditions": "mixture with full length; truncated Pot1p-DNA complex seen; purified recombinant protein; label: 5' 32P; single-stranded DNA",
  "note": "Construct, isoform or probe ends are uncertain for at least one entry.",
  "data": [
    {"sequence": "GGTTACACGGTTACAGGTTACAGGTTACAGGGTTACGGTTACG [S. pombe G-strand (PBoli112)]", "values": [
      {"measurement": "binding result", "value": "binds"}
    ]}
  ]
}
